This passage reports AC50 and cell number change results from PubChem BioAssay AID2685 (National Center for Advancing Translational Sciences (NCATS), 2010).

Each structure is given as a SMILES string. Some of the results follow. These are further read-outs of the screen, such as a control signal, another cell line or another target. No call is given for them. Compounds called inactive in the main read-out are mostly missing here. The note in brackets gives the kind of curve behind each potency; many fits are weak.

The nature of the assay: qHTS Assay for Lipid Storage Modulators in Drosophila S3 Cells.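 On cell number change: cells counted by Cell Tracker Red CMTPX staining in the red channel.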 As to conditions: BODIPY lipid droplet fluorescence, 18-24 h; for cell number change: measured here: cell count max response, cells fed with added oleic acid. Summed up: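 Drosophila S3 cells got compounds at several concentrations plus oleic acid (400 uM solution). Laser-scanning cytometry with 488 nm excitation read lipid droplets at 500-530 nm and cells at 575-640 nm. Percent activity was relative to 20 uM Triacsin C.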
Background: Quantitative high-throughput screening tests each substance at several concentrations.

Setting [1] is: measured here: cell number channel AC50, cells fed with added oleic acid.
[2] abbreviates: measured here: lipid fluorescence (Fed channel) AC50, cells fed with added oleic acid.

In the case of `Cc1cc(Br)ccc1OCc1nc(-c2cccnc2)no1`, the AC50 was 2.59 µM [rising, partial curve] under setting [1] and 0.731 µM [rising, single point] under setting [2].
For `Cc1ccc(C(=O)Nc2ncnc3sc4c(c23)CCCCC4)cc1`, the cell number change is -15.1%. Also, the AC50 under setting [2] was 29.1 µM [rising, single point].
Take `NC(=O)c1c(NC(=O)c2ccc(S(=O)(=O)N3CCOCC3)cc2)sc2c1CCCCC2`: the cell number change was found to be 0.633%. Besides, the half-maximal activity concentration (AC50) under setting [2] was 0.164 µM [rising, full curve].
Turning to `CC(C)CCN(C(=O)CNC(=O)c1cccs1)C(C(=O)NC1CCCC1)c1ccncc1` (stereo unspecified), the cell number change was 5.34%.
On to `COc1ccc(Cn2nnnc2CN2CCCCCC2)cc1`, for which the cell number change was -40.3%. Also, the AC50 under setting [1] is 29.1 µM [falling, single point]. Also, under setting [2], the AC50 is 29.1 µM [falling, single point].
Consider `COc1ccc(NS(=O)(=O)c2ccc(OC)c(N(C)S(=O)(=O)c3ccc(Cl)cc3)c2)cc1`, for which the cell number change was 7.67%. Further, the AC50 under setting [2] was 18.4 µM [rising, single point].
Take `c1ccc(CSc2ncnc3c2cnn3-c2ccccc2)cc1`: the cell number change was -5.92%. In addition, under setting [1], the AC50 is 6.51 µM [falling, single point]. The AC50 under setting [2] was 6.51 µM [falling, single point].
`CCC(C(=O)OCC(=O)Nc1cccc(OC)c1)c1ccccc1` (stereo unspecified): the cell number change is -20.3%. The half-maximal activity concentration (AC50) under setting [1] is 0.82 µM [falling, full curve, poor fit]. Moreover, the AC50 under setting [2] was 0.146 µM [falling, full curve, poor fit].
In the case of `N#CCC(=O)Nc1nc(-c2ccc3c(c2)OCCO3)cs1`, the AC50 under setting [2] is 0.224 µM [rising, full curve].
Turning to `NC(=O)CC(NC(=O)Cc1cccc2ccccc12)c1ccc(NC2CCN(Cc3ccccc3)CC2)c([N+](=O)[O-])c1` (stereo unspecified), the cell number change is -0.971%. Also, under setting [2], the AC50 was 29.1 µM [falling, single point].
`CCOc1ccc(/C=C2\SC(=S)N(C(C(=O)O)c3ccccc3)C2=O)cc1OC` (stereo unspecified): the cell number change is -3.84%. The half-maximal activity concentration (AC50) under setting [2] was 0.13 µM [falling, full curve, poor fit].
Take `Cc1ccc(-n2nnc(-c3cnc4ccccc4c3)n2)cc1`: the cell number change is -15%. Moreover, the AC50 under setting [2] was 29.1 µM [falling, single point].
Consider `Cc1cc(NC(=O)CN2C(=O)NC(C)(c3ccc(OC(F)F)cc3)C2=O)no1` (stereo unspecified), for which the cell number change was 55.6%. The AC50 under setting [1] is 29.1 µM [rising, single point]. Moreover, the AC50 under setting [2] was 29.1 µM [rising, partial curve].
`Cn1cccc1/C=N/NC(=O)c1ccc[n+]([O-])c1`: under setting [2], the AC50 was 0.517 µM [falling, single point].
Regarding `COc1cccc(C(=O)N2CCN(S(C)(=O)=O)CC2)c1`, the cell number change was -90.6%. Besides, under setting [1], the AC50 was 18.4 µM [falling, partial curve]. The AC50 under setting [2] was 18.4 µM [falling, partial curve].
For the molecule `CCN(CC)CCSc1nc2ccccc2n1Cc1ccccc1`, the cell number change was -21.2%. Also, under setting [2], the AC50 was 0.092 µM [falling, full curve, poor fit].
As for `O=C(CC(=O)N/N=C/c1ccc(O)cc1)N/N=C/c1ccc(O)cc1`, the AC50 reads like this: under setting [1], 6.51 µM [falling, single point]; under setting [2], 6.51 µM [falling, single point].
As to `Cc1cccc(NC(=O)C2CCN(S(=O)(=O)c3c(C)[nH]c(=O)[nH]c3=O)CC2)c1`, the cell number change was found to be 37.3%. Also, the AC50 under setting [1] is 0.00517 µM [rising, full curve, poor fit]. Further, the AC50 under setting [2] is 0.184 µM [rising, full curve].
For the molecule `CCOC(=O)c1c(C)[nH]c(C(=O)COC(=O)CSC)c1C`, the cell number change is -9.76%. In addition, under setting [2], the AC50 is 29.1 µM [rising, single point].
For `CCCCN(C(=O)c1ccc(Cl)c([N+](=O)[O-])c1)c1c(N)n(CCC)c(=O)[nH]c1=O`, the cell number change was -46.4%. In addition, the AC50 under setting [1] was 2.31 µM [falling, partial curve]. In addition, under setting [2], the half-maximal activity concentration (AC50) was 0.326 µM [falling, full curve, poor fit].
On to `CCn1cc(C(=O)OCC(=O)NCc2ccccc2Cl)c(=O)c2ccc(C)nc21`, for which the cell number change was determined as 12.1%. Moreover, the AC50 under setting [1] is 5.8 µM [rising, single point].
Take `COc1nc(OCCNC(C)=O)nc(N(C)C)n1`: the cell number change was 8.2%. Also, the AC50 under setting [2] was 29.1 µM [rising, single point].
Consider `Cc1ccc(S(=O)(=O)N2CCCOC2CNC(=O)C(=O)NCCCn2ccnc2)cc1` (stereo unspecified), for which the cell number change was -3.77%. In addition, the AC50 under setting [2] was 2.06 µM [falling, partial curve, poor fit].
As to `CCOc1ccc(S(=O)(=O)NCCC(=O)NCCc2ccc(C(C)C)cc2)cc1`, the cell number change turned out to be 2.91%. For the same molecule, under setting [2], the half-maximal activity concentration (AC50) was 0.651 µM [falling, single point].
As for `COc1ccc(NC(=O)c2cccnc2)cc1`, the cell number change is 33.9%. Moreover, the AC50 under setting [2] was 29.1 µM [rising, single point].
With `CC1(c2cccc(Br)c2)NC(=O)N(CC(=O)N2CCc3ccccc32)C1=O` (stereo unspecified), the cell number change is -15.7%. Also, the AC50 under setting [2] is 0.231 µM [falling, full curve].
For `CC(=O)Nc1cc(NC(C)=O)cc(C(=O)OCC(=O)N(c2ccccc2)C2CCS(=O)(=O)C2)c1` (stereo unspecified), the cell number change was found to be 9.94%. Further, the AC50 under setting [2] was 5.8 µM [rising, full curve, poor fit].
Take `CC(C)(C)OC(=O)CNC(=O)c1[nH]cnc1C(=O)N[C@@H](CCCCNC(=O)OC(C)(C)C)C(=O)OC(C)(C)C`: the cell number change was found to be 17.9%. For the same molecule, under setting [2], the AC50 was 9.2 µM [rising, partial curve, poor fit].
Take `COc1ccc(OC)c(-c2csc(NC(=O)c3ccc(F)cc3)n2)c1`: the cell number change is -25.3%. In addition, under setting [2], the AC50 is 29.1 µM [falling, single point].
For the molecule `O=C(CN1C(=O)c2ccccc2S1(=O)=O)NCc1ccccn1`, the cell number change is -1.88%. The AC50 under setting [2] is 0.13 µM [falling, full curve, poor fit].
For `CNc1nc(N2CCc3ccccc32)ncc1F`, the cell number change is -34.3%. Moreover, under setting [1], the AC50 was 13 µM [falling, partial curve]. For the same molecule, under setting [2], the AC50 was 16.4 µM [falling, single point].
As for `COc1ccc(OC)c(Nc2ncnc3sc(-c4ccccc4)cc23)c1`, the cell number change came out at 12.3%. For the same molecule, the concentration at half-maximal activity (AC50) under setting [2] was 0.461 µM [rising, single point].
With `O=C(O)Cc1ccc(-c2ccccc2)cc1`, the cell number change came to 4.74%. Under setting [2], the AC50 was 0.326 µM [falling, partial curve, poor fit].
On to `C=CCc1ccccc1OCC(=O)NNC(=S)NCc1ccccc1`, for which the cell number change was -29.5%. In addition, the AC50 under setting [2] was 6.51 µM [falling, single point].
As for `CCN(CC)C(=O)C[n+]1cccc(C(N)=O)c1`, the cell number change is 50.9%. Moreover, under setting [1], the AC50 was 2.06 µM [rising, full curve, poor fit]. Moreover, the AC50 under setting [2] is 4.11 µM [rising, partial curve, poor fit].

The term AC50 denotes the concentration at which the activity in the assay is half-maximal. The low end stands for activity at low concentration, the high end for activity only at high concentration.
